Test results published in paper doi:10.1101/2021.02.05.426302.
No constants are given. Whether binding was seen depends on the method and setting. Binding seen in cells or lysates may run through a third protein. Some entries that bind do so weakly or less than the wild type. Where a sequence is shown, tags or fusion partners need not be part of it.

T1: SOBER1-FLAG (SUPPRESSOR OF AVRBST-ELICITED … 1) (Arabidopsis thaliana) (UniProt Q84WK4)
T1 sequence: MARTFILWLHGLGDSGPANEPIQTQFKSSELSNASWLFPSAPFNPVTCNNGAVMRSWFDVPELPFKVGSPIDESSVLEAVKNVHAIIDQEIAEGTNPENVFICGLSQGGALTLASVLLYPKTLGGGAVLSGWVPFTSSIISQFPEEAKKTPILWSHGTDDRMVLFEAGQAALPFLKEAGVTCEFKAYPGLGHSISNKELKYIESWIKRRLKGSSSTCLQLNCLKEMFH


How the values were obtained:
Assay in all cases: co-IP
[1] = target: AvrRpm1-GFP (Pseudomonas syringae) (UniProt Q7BE94)
[2] = target: T1, SOBER1-FLAG (SUPPRESSOR OF AVRBST-ELICITED … 1) (Arabidopsis thaliana)
[3] = target: SOBER1^H192A-FLAG (Arabidopsis thaliana) (UniProt Q84WK4)

| Binder | binding [1] | binding [2] | binding [3] |
| --- | --- | --- | --- |
| FLAG-RIN4 (RPM1-… PROTEIN 4) (protein, UniProt Q8GYN5 1-211) MARSNVPKFGNWEAEENVPYTAYFDKARKTRAPGSKIMNPNDPEYNSDSQSQAPPHPPSSRTKPEQVDTVRRSREHMRSREESELKQFGDAGGSSNEAANKRQGRASQNNSYDNKSPLHKNSYDGTGKSRPKPTNLRADESPEKVTVVPKFGDWDENNPSSADGYTHIFNKVREERSSGANVSGSSRTPTHQSSRNPNNTSSCCCFGFGGK | binds |  |  |
| MYC-RIN4 (protein, UniProt Q8GYN5 1-211) MARSNVPKFGNWEAEENVPYTAYFDKARKTRAPGSKIMNPNDPEYNSDSQSQAPPHPPSSRTKPEQVDTVRRSREHMRSREESELKQFGDAGGSSNEAANKRQGRASQNNSYDNKSPLHKNSYDGTGKSRPKPTNLRADESPEKVTVVPKFGDWDENNPSSADGYTHIFNKVREERSSGANVSGSSRTPTHQSSRNPNNTSSCCCFGFGGK |  | binds | binds |
